Results as given in patent US9371315B2, “N-(tetrazol-5-yl)- and N-(triazol-5-yl)arylcarboxamide salts and use thereof as herbicides” (BAYER CROPSCIENCE AG, priority 2012, dated 2016).
Some entries share one result that the patent states for a list of compounds. At least one compound was matched to its structure with a doubt left.

Columns and labels:
Type in all cases: in vivo
Echinochloa crus galli [1] = experiment: Pre-emergence herbicidal action against harmful plants; conditions: 320 g/ha, assessed visually after 3 weeks vs untreated controls
Setaria viridis = experiment: as above; conditions: 320 g/ha, assessed visually after 3 weeks vs untreated controls
Abutilon theophrasti = experiment: as above; conditions: 320 g/ha, assessed visually after 3 weeks vs untreated controls
Amaranthus retroflexus = experiment: as above; conditions: 320 g/ha, assessed visually after 3 weeks vs untreated controls
Matricaria inodora [2] = experiment: as above; conditions: 320 g/ha, assessed visually after 3 weeks vs untreated controls
Stellaria media [3] = experiment: as above; conditions: 320 g/ha, assessed visually after 3 weeks vs untreated controls
Viola tricolor = experiment: as above; conditions: 320 g/ha, assessed visually after 3 weeks vs untreated controls
Veronica persica [4] = experiment: as above; conditions: 320 g/ha, assessed visually after 3 weeks vs untreated controls
Echinochloa crus galli [5] = experiment: Post-emergence herbicidal action against harmful plants; conditions: 80 g/ha, one-leaf stage, assessed visually after about 3 weeks vs untreated controls
Matricaria inodora [6] = experiment: as above; conditions: 80 g/ha, one-leaf stage, assessed visually after about 3 weeks vs untreated controls
Pharbitis purpureum = experiment: as above; conditions: 80 g/ha, one-leaf stage, assessed visually after about 3 weeks vs untreated controls
Stellaria media [7] = experiment: as above; conditions: 80 g/ha, one-leaf stage, assessed visually after about 3 weeks vs untreated controls
Veronica persica [8] = experiment: as above; conditions: 80 g/ha, one-leaf stage, assessed visually after about 3 weeks vs untreated controls

Cn1nnnc1[N-]C(=O)c1ccc(S(C)(=O)=O)c(OCC2CC2)c1Cl.[Na+] [1-138]
at least 80%: herbicidal activity in percent (%) (Echinochloa crus galli [1]) | herbicidal activity in percent (%) (Setaria viridis) | herbicidal activity in percent (%) (Abutilon theophrasti) | herbicidal activity in percent (%) (Amaranthus retroflexus) | herbicidal activity in percent (%) (Matricaria inodora [2]) | herbicidal activity in percent (%) (Stellaria media [3]) | herbicidal activity in percent (%) (Viola tricolor) | herbicidal activity in percent (%) (Veronica persica [4]) | herbicidal action in percent (%) (Echinochloa crus galli [5]) | herbicidal action in percent (%) (Matricaria inodora [6]) | herbicidal action in percent (%) (Pharbitis purpureum) | herbicidal action in percent (%) (Stellaria media [7]) | herbicidal action in percent (%) (Veronica persica [8])

COCCCOc1c(S(C)(=O)=O)ccc(C(=O)[N-]c2nnnn2C)c1Cl.[Na+] [1-141]
at least 80%: herbicidal activity in percent (%) (Echinochloa crus galli [1]) | herbicidal activity in percent (%) (Setaria viridis) | herbicidal activity in percent (%) (Abutilon theophrasti) | herbicidal activity in percent (%) (Amaranthus retroflexus) | herbicidal activity in percent (%) (Matricaria inodora [2]) | herbicidal activity in percent (%) (Stellaria media [3]) | herbicidal activity in percent (%) (Viola tricolor) | herbicidal activity in percent (%) (Veronica persica [4]) | herbicidal action in percent (%) (Echinochloa crus galli [5]) | herbicidal action in percent (%) (Matricaria inodora [6]) | herbicidal action in percent (%) (Pharbitis purpureum) | herbicidal action in percent (%) (Stellaria media [7]) | herbicidal action in percent (%) (Veronica persica [8])

C[N+](C)(C)CCO.Cc1c(C(=O)[N-]c2ncnn2C)ccc(S(C)(=O)=O)c1S(C)(=O)=O [No. 2-6]
at least 80%: herbicidal activity in percent (%) (Echinochloa crus galli [1]) | herbicidal activity in percent (%) (Setaria viridis) | herbicidal activity in percent (%) (Abutilon theophrasti) | herbicidal activity in percent (%) (Amaranthus retroflexus) | herbicidal activity in percent (%) (Matricaria inodora [2]) | herbicidal activity in percent (%) (Stellaria media [3]) | herbicidal activity in percent (%) (Viola tricolor) | herbicidal activity in percent (%) (Veronica persica [4]) | herbicidal action in percent (%) (Echinochloa crus galli [5]) | herbicidal action in percent (%) (Matricaria inodora [6]) | herbicidal action in percent (%) (Pharbitis purpureum) | herbicidal action in percent (%) (Stellaria media [7]) | herbicidal action in percent (%) (Veronica persica [8])
